Results are given in words; binding and its absence hold for the method and conditions named. Some entries that bind do so weakly or less than the wild type. Where a sequence is shown, tags or fusion partners need not be part of it.
Target: T1, HybD endoprotease fused with peptide T18 of adenylate cyclase (pT18-hybD) (Escherichia coli) (UniProt P37182)
T1 sequence: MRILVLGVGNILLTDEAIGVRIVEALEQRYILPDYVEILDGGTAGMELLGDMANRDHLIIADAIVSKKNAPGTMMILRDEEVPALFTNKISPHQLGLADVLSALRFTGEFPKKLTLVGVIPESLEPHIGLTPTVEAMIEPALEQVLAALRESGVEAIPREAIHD
Test: two-hybrid; bacterial two-hybrid (adenylate cyclase fragments T25 and T18) in E. coli BTH101; T25 at the N-terminus of the large subunit variants, T18 fused with HybD; anaerobic growth in TGYEP medium pH 6.5 at 30°C for 16 h; β-galactosidase activity according to Miller

B1: pro-HybC^ST fused to peptide T25 of adenylate cyclase (pT25-hybC^ST) (protein, UniProt P0ACE0 2-567)
chain: SQRITIDPVTRIEGHLRIDCEIENGVVSKAWASGTMWRGMEEIVKNRDPRDAWMIVQRICGVCTTTHALSSVRAAESALNIDVPVNAQYIRNIILAAHTTHDHIVHFYQLSALDWVDITSALQADPTKASEMLKGVSTWHLNSPEEFTKVQNKIKDLVASGQLGIFANGYWGHPAMKLPPEVNLIAVAHYLQALECQRDANRVVALLGGKTPHIQNLAVGGVANPINLDGLGVLNLERLMYIKSFIDKLSDFVEQVYKVDTAVIAAFYPEWLTRGKGAVNYLSVPEFPTDSKNGSFLFPGGYIENADLSSYRPITSHSDEYLIKGIQESAKHSWYKDEAPQAPWEGTTIPAYDGWSDDGKYSWVKSPTFYGKTVEVGPLANMLVKLAAGRESTQNKLNEIVAIYQKLTGNTLEVAQLHSTLGRIIGRTVHCCELQDILQNQYSALITNIGKGDHTTFVKPNIPATGEFKGVGFLEAPRGMLSHWMVIKDGIISNYQAVVPSTWNSGPRNFNDDVGPYEQSLVGTPVADPNKPLEVVRTIHSFDPCMACSTHVVDADGNEVVSVKVL
binding: binds

B2: pro-HyaB, large subunit precursor of E. coli hydrogenase 1, fused to the T25 adenylate cyclase fragment (pT25-hyaB) (protein, UniProt P0ACD8 2-597)
chain: STQYETQGYTINNAGRRLVVDPITRIEGHMRCEVNINDQNVITNAVSCGTMFRGLEIILQGRDPRDAWAFVERICGVCTGVHALASVYAIEDAIGIKVPDNANIIRNIMLATLWCHDHLVHFYQLAGMDWIDVLDALKADPRKTSELAQSLSSWPKSSPGYFFDVQNRLKKFVEGGQLGIFRNGYWGHPQYKLPPEANLMGFAHYLEALDFQREIVKIHAVFGGKNPHPNWIVGGMPCAINIDESGAVGAVNMERLNLVQSIITRTADFINNVMIPDALAIGQFNKPWSEIGTGLSDKCVLSYGAFPDIANDFGEKSLLMPGGAVINGDFNNVLPVDLVDPQQVQEFVDHAWYRYPNDQVGRHPFDGITDPWYNPGDVKGSDTNIQQLNEQERYSWIKAPRWRGNAMEVGPLARTLIAYHKGDAATVESVDRMMSALNLPLSGIQSTLGRILCRAHEAQWAAGKLQYFFDKLMTNLKNGNLATASTEKWEPATWPTECRGVGFTEAPRGALGHWAAIRDGKIDLYQCVVPTTWNASPRDPKGQIGAYEAALMNTKMAIPEQPLEILRTLHSFDPCLACSTHVLGDDGSELISVQVR
binding: no binding
